From PubChem BioAssay AID493014 (National Center for Advancing Translational Sciences (NCATS), 2011)
The other results are listed elsewhere or left out. Shown are side measurements of this screen, not its main read-out; they come without a call. Compounds called inactive in the main read-out are mostly missing here. Words in brackets tell the shape of the fitted curve; partial curves, single points and poor fits give uncertain potencies.

Assay: qHTS Assay to Find Inhibitors of Chronic Active B-Cell Receptor Signaling
Settings: ABC-DLBCL IkBa-CBG/CBR reporter, luminescence ratio (green luciferase fused to IkBa over red control in TMD8 lymphoma cells), 4 h
Procedure, shortened: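 Concentration-response series (up to 46 uM) were applied to TMD8 dual-reporter cells for 4 h at 37C with doxycycline. Green/red ratio, after filter-overlap correction, defined %Activity; red signal alone was normalised to basal cells and zero luminescence.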

[1] = measured here: CBR red luminescence, cell number
[2] = measured here: IkBa-CBG green luminescence

| SMILES | AC50 [1] | AC50 [2] |
| --- | --- | --- |
| Cc1nc(-c2ccc(C(=O)Nc3ccccc3F)cc2)cs1 | 3.98 µM [falling, partial curve] |  |
| CCCCN(C(=O)c1ccc(N2CCCC2=O)cc1)c1c(N)n(Cc2ccccc2)c(=O)[nH]c1=O | 3.66 µM [rising, single point] |  |
| COc1ccc(/C=C/c2cc(C(F)(F)F)[nH]c(=O)n2)cc1OC | 12.6 µM [falling, partial curve] |  |
| Cc1ccc(/C=C/C2=NN(C)C(=O)CC2)cc1 | 14.1 µM [falling, single point] |  |
| O=C(O)/C=C\C(=O)Nc1cccc(C(=O)Nc2cccc(O)c2)c1 | 25.1 µM [falling, single point] |  |
| O=C(NCc1ccccn1)c1cc(Cl)ccc1OCc1ccccc1 | 17.8 µM [falling, partial curve, poor fit] |  |
| CCOc1ccc(-n2c(SCC(=O)Nc3ccc(CC)cc3)nc3n[nH]c(C)c3c2=N)cc1 | 3.16 µM [rising, partial curve, poor fit] |  |
| COc1ccc(C(=O)NCc2ccc(-n3cccc3)cc2)cc1OC | 15.8 µM [falling, single point] |  |
| Cc1ccc(C)c(Cn2nc(-c3ccccc3)ccc2=O)c1 | 35.5 µM [falling, single point] |  |
| Cc1c(N2C(=O)/C(=C\C3CC=CCC3)SC2=S)c(=O)n(-c2ccccc2)n1C (configuration not stated) | 12.6 µM [falling, partial curve] |  |
| Cc1ccc(SCCC(=O)N/N=C/c2ccncc2)cc1 | 35.5 µM [falling, single point] |  |
| Cc1c(C(=O)NNC(=O)c2csc(N3CCOCC3)n2)oc2ccccc12 | 13 µM [falling, partial curve, poor fit] |  |
| COc1ccc(/C=N/N=C2/NC(=O)C(c3ccccc3)(c3ccccc3)S2)cc1 | 6.51 µM [rising, single point] |  |
| N/C(=N\OC(=O)Cc1cccs1)c1ccc(Cl)cc1 | 0.447 µM [rising, full curve, poor fit] |  |
| CC(C(=O)Nc1cc([N+](=O)[O-])ccc1Cl)N1CCN(c2ccccc2O)CC1 (configuration not stated) | 18.4 µM [falling, single point] |  |
| O=[N+]([O-])c1ccc(COc2ccccc2/C=N/O)cc1 | 32.6 µM [falling, single point] |  |
| COc1ccccc1NC(=S)NCc1ccccc1Cl | 6.31 µM [rising, single point] |  |
| CCC(C)Oc1nc2c(c(=O)n(C)c(=O)n2C)n1C (configuration not stated) | 0.501 µM [falling, full curve, poor fit] |  |
| O=C(COc1cccc2ccccc12)N1CCN(c2ccccn2)CC1 | 4.11 µM [rising, full curve, poor fit] |  |
| O=C(COc1ccccc1-c1ccccc1)N/N=C/c1ccc2ccccc2c1 | 2.06 µM [rising, full curve] | 1.16 µM [falling, full curve] |
| Cc1ccccc1-c1nc(C(=O)NCC2CCCO2)cc2c1[nH]c1ccccc12 (configuration not stated) | 7.08 µM [falling, full curve] |  |
| COc1ccc(S(=O)(=O)Nc2cccc(SC)c2)cc1C(=O)N1CCOCC1 | 35.5 µM [falling, single point] |  |

| SMILES | AC50 [1] | AC50 [2] |
| --- | --- | --- |
| COc1cccc2c(=O)c(C(=O)O)c[nH]c12 | 4.61 µM [falling, full curve] |  |
| COc1ccc(C(O)c2nccc3cc(OC)c(OC)cc23)cc1OC (configuration not stated) | 10 µM [rising, partial curve, poor fit] |  |
| O=C(COc1ccccc1C(=O)NCC1CCCO1)Nc1ccc(Br)cc1 (configuration not stated) | 15.8 µM [falling, partial curve, poor fit] |  |
| CC(C)(C)c1cc(C(=O)NCc2cc(F)cc3c2OCOC3)n(Cc2ccccc2)n1 | 25.1 µM [rising, single point] |  |
| CCCCc1c(C)nc2nc(SCc3ccc(Cl)cc3)[nH]n2c1=O | 1.78 µM [falling, full curve] |  |
| COc1ccc(CNC(=O)N2CCc3ccccc3C2)cc1Cl | 15.8 µM [falling, single point] |  |
| CC[C@@H](C)[C@@H]1CN([C@@H](CN2CCC[C@H]2CN2C(N)=NC[C@H]2C(C)C)C(C)C)C(=N)N1CCCC1CCCC1 | 29.1 µM [rising, partial curve, poor fit] |  |
| CCCOC(=O)CSc1nnc(-c2ccccc2)o1 | 25.1 µM [rising, single point] |  |
| CCOC(=O)C(=Cc1ccccc1OC)C(=O)OCC | 7.08 µM [falling, full curve] | 10 µM [rising, partial curve, poor fit] |
| O=C(N/N=C1\CCCCc2ccccc21)c1ccccn1 | 35.5 µM [falling, partial curve, poor fit] |  |
| CSc1cccc(NC(=O)C2CCCN(S(=O)(=O)c3cccs3)C2)c1 (configuration not stated) | 8.91 µM [falling, partial curve] |  |
| COc1cc(/C=N/NC(=O)CCn2c3ccccc3c3ccccc32)ccc1O | 18.4 µM [falling, partial curve, poor fit] |  |
| O=C(CNc1ccc(Br)cc1)Nc1ccc(S(=O)(=O)N2CCCC2)cc1 | 6.51 µM [rising, single point] |  |
| COC(=O)C1=C(C)N(CCc2ccccc2)C(=O)/C1=C\c1ccco1 | 32.6 µM [falling, partial curve, poor fit] |  |
| COc1ccc(/C(C)=N/Nc2nc3ccccc3nc2C)cc1OC |  | 15.8 µM [falling, partial curve] |
| Oc1ccc(/C=N/N(Cc2ccccc2)c2ccccc2)cc1 | 22.4 µM [falling, single point] |  |
| Nc1c(N=Nc2cccc(Cl)c2)c(=O)[nH]n1-c1ccccc1 | 1.58 µM [falling, partial curve] |  |
| Nc1cc(N)cc(-c2nc3ccccc3[nH]2)c1 | 2.31 µM [rising, partial curve, poor fit] |  |
| O=C(Nc1ccc(Br)cc1)Nc1ccccc1Cl | 3.55 µM [falling, partial curve, poor fit] |  |
| Cc1cc(NC(=O)C2CCCCC2)ccc1NC(=O)c1ccccc1Cl | 29.1 µM [rising, single point] |  |
| O=C(O)CCCCCn1c(O)c(C=C2N=c3ccccc3=N2)sc1=S | 0.461 µM [falling, full curve] |  |
| O=C(c1cc(-c2ccc(F)cc2)on1)N1CCN(c2ccc(F)cc2)CC1 | 5.62 µM [falling, full curve] |  |

| SMILES | AC50 [1] | AC50 [2] |
| --- | --- | --- |
| COc1ccc(C2CN=NC23CCCc2ccccc2C3=O)cc1 (configuration not stated) | 2.24 µM [rising, partial curve] |  |
| Cc1cc(C(=O)OCC(=O)N2CC(C)OC(C)C2)c2ccccc2n1 (configuration not stated) | 0.103 µM [rising, full curve, poor fit] |  |
| N#Cc1cccc(S(=O)(=O)NCC(=O)OCC(=O)c2ccc[nH]2)c1 | 20 µM [rising, partial curve, poor fit] |  |
| Cc1ccc(/C=C/C(=O)N2CC(=O)Nc3ccccc32)o1 | 35.5 µM [falling, single point] |  |
| O=C(CSc1nnc2c(n1)[nH]c1ccccc12)Nc1ccc(S(=O)(=O)Nc2ncccn2)cc1 | 35.5 µM [falling, single point] |  |
| COCCCNC(=S)N(CCO)Cc1cc2cc3c(cc2[nH]c1=O)OCCO3 | 17.8 µM [rising, single point] |  |
| Cc1nnc(SCC(=O)N2CCCCC2)n1CC1CCCO1 (configuration not stated) | 23.1 µM [rising, single point] |  |
| CCOC(=O)c1c(N)n(-c2ccc(OCC)cc2)c2nc3ccccc3nc12 | 2.51 µM [rising, single point] |  |
| O=c1[nH]cnc2c1N=C(c1cccc([N+](=O)[O-])c1)CC(c1ccccc1)N2 (configuration not stated) | 11.2 µM [rising, partial curve] |  |
| CNC[C@@H]1Oc2ccc(NS(=O)(=O)c3ccc(OC)cc3)cc2CC(=O)N([C@H](C)CO)C[C@@H]1C | 0.184 µM [rising, full curve, poor fit] |  |
| CN1CCN(CCCNC(=O)c2ccc(/C=C3\Sc4ccccc4N(Cc4ccccc4F)C3=O)cc2)CC1 | 35.5 µM [falling, single point] |  |
| CCCC(C)c1nnc(NC(=O)CCS(=O)(=O)c2ccccc2)s1 (configuration not stated) | 7.94 µM [falling, partial curve] |  |
| N#CCSc1nc2c(c(C3CC=CCC3)c1C#N)CCC2 (configuration not stated) | 0.731 µM [rising, full curve, poor fit] |  |
| O=C(c1n[nH]c2c1CCCC2)n1ccnc1 | 32.6 µM [falling, single point] |  |
| Cc1cccc2nc(CSc3nc4ccc([N+](=O)[O-])cc4[nH]3)c(Br)n12 | 2.06 µM [rising, partial curve] |  |
| COc1cc(C2Nc3cc(Cl)c(S(N)(=O)=O)cc3S(=O)(=O)N2)ccc1OCc1ccccc1 (configuration not stated) | 14.6 µM [falling, single point] |  |
| COc1ccccc1-c1nnc(NC(=O)c2cccc(N3C(=O)CCC3=O)c2)o1 | 7.31 µM [falling, partial curve] |  |
| O=C(Cn1ncc2ccccc21)N1CCc2ccccc21 | 5.8 µM [rising, partial curve, poor fit] |  |
| COc1ccc(C(=O)Nn2c(SCC(=O)NCc3ccccc3)nc3ccccc3c2=O)cc1 | 2.31 µM [falling, full curve] |  |
| COC(=O)c1ccccc1NC(=O)Cn1cnc2cc(C)c(C)cc21 | 35.5 µM [falling, single point] |  |
| CCOC(=O)c1nn(-c2ccccc2)cc1O | 0.631 µM [falling, full curve, poor fit] |  |

17 structures out of the list, arranged by molecular weight, rising:

| SMILES | AC50 [1] | AC50 [2] |
| --- | --- | --- |
| CCOC(=O)c1nn(-c2ccccc2)cc1O | 0.631 µM [falling, full curve, poor fit] |  |
| CCC(C)Oc1nc2c(c(=O)n(C)c(=O)n2C)n1C (configuration not stated) | 0.501 µM [falling, full curve, poor fit] |  |
| CCOC(=O)C(=Cc1ccccc1OC)C(=O)OCC | 7.08 µM [falling, full curve] | 10 µM [rising, partial curve, poor fit] |
| Cc1ccc(/C=C/C(=O)N2CC(=O)Nc3ccccc32)o1 | 35.5 µM [falling, single point] |  |
| Oc1ccc(/C=N/N(Cc2ccccc2)c2ccccc2)cc1 | 22.4 µM [falling, single point] |  |
| COc1ccccc1NC(=S)NCc1ccccc1Cl | 6.31 µM [rising, single point] |  |
| Cc1nc(-c2ccc(C(=O)Nc3ccccc3F)cc2)cs1 | 3.98 µM [falling, partial curve] |  |
| COc1ccc(C2CN=NC23CCCc2ccccc2C3=O)cc1 (configuration not stated) | 2.24 µM [rising, partial curve] |  |
| CCCCc1c(C)nc2nc(SCc3ccc(Cl)cc3)[nH]n2c1=O | 1.78 µM [falling, full curve] |  |
| CCCC(C)c1nnc(NC(=O)CCS(=O)(=O)c2ccccc2)s1 (configuration not stated) | 7.94 µM [falling, partial curve] |  |
| O=C(c1cc(-c2ccc(F)cc2)on1)N1CCN(c2ccc(F)cc2)CC1 | 5.62 µM [falling, full curve] |  |
| CCOC(=O)c1c(N)n(-c2ccc(OCC)cc2)c2nc3ccccc3nc12 | 2.51 µM [rising, single point] |  |
| CSc1cccc(NC(=O)C2CCCN(S(=O)(=O)c3cccs3)C2)c1 (configuration not stated) | 8.91 µM [falling, partial curve] |  |
| COc1ccc(/C=N/N=C2/NC(=O)C(c3ccccc3)(c3ccccc3)S2)cc1 | 6.51 µM [rising, single point] |  |
| CC(C(=O)Nc1cc([N+](=O)[O-])ccc1Cl)N1CCN(c2ccccc2O)CC1 (configuration not stated) | 18.4 µM [falling, single point] |  |
| CCOc1ccc(-n2c(SCC(=O)Nc3ccc(CC)cc3)nc3n[nH]c(C)c3c2=N)cc1 | 3.16 µM [rising, partial curve, poor fit] |  |
| CCCCN(C(=O)c1ccc(N2CCCC2=O)cc1)c1c(N)n(Cc2ccccc2)c(=O)[nH]c1=O | 3.66 µM [rising, single point] |  |
